Measured values: patent US9415087B2, “Compositions and methods for treating coronavirus infection” (LUDWIG-MAXIMILIANS-UNIVERSITAET MUENCHEN, priority 2014, dated 2016)
Entries after “also recorded” stand apart in the source; their conditions may differ. At least one structure is not confirmed: it was looked up by name or label, or the drawing left a doubt.

Legend:
NFAT-GFP = NFAT-GFP nuclear translocation assay; details: 40 nM compound, ionomycin 2 μM; yes = non-immunosuppressive
HCoV-229E-LUC = format: cell-based; details: Huh-7.5 cells
HCoV-229E N protein = format: cell-based; details: at 20 μM, 48 h

SMILES | NFAT-GFP translocation in HEK-293 cells (to the nucleus) (NFAT-GFP) | inhibition of 229E-LUC replication (in words) (HCoV-229E-LUC) | HCoV-229E N protein synthesis (in words) (HCoV-229E N protein)
C=CC[C@@H]1/C=C(\C)C[C@H](C)C[C@H](OC)[C@H]2O[C@@](O)(C(=O)C(=O)N3CCCC[C@H]3C(=O)O[C@H](/C(C)=C/[C@@H]3CC[C@@H](O)[C@H](OC)C3)[C@H](C)[C@@H](O)CC1=O)[C@H](C)C[C@@H]2OC [FK506] | remained in the cytoplasm and no |  | 
CO[C@H]1C[C@@H]2CC[C@@H](C)[C@@](O)(O2)C(=O)C(=O)N2CCCC[C@H]2C(=O)O[C@H]([C@H](C)C[C@@H]2CC[C@@H](O)[C@H](OC)C2)CC(=O)[C@H](C)/C=C(\C)[C@@H](O)[C@@H](OC)C(=O)[C@H](C)C[C@H](C)/C=C/C=C/C=C/1C [rapamycin, Rapamycin] |  | only some minor background inhibitory activity; also recorded: do not inhibit | allow significant N protein synthesis
